These results are taken from PMC9989923.

Protein sequences, listed by entry. Tags and fused reporters are not part of them.
UniProt P0DMV8: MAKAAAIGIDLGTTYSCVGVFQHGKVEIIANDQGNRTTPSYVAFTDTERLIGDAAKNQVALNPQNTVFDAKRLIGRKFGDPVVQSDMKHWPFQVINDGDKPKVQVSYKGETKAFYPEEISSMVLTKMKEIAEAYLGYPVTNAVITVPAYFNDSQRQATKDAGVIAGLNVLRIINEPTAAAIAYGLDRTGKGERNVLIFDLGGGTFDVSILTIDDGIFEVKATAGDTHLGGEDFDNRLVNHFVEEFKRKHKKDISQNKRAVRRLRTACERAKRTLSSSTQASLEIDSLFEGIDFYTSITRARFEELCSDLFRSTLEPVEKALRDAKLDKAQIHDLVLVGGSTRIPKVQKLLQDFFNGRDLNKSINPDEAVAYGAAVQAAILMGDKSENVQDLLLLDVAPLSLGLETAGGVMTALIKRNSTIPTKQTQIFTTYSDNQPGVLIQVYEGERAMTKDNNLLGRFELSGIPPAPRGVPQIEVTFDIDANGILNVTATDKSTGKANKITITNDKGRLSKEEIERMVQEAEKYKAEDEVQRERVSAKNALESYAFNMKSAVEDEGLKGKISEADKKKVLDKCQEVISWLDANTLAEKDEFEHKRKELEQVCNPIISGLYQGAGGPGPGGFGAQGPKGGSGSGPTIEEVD
UniProt P25685: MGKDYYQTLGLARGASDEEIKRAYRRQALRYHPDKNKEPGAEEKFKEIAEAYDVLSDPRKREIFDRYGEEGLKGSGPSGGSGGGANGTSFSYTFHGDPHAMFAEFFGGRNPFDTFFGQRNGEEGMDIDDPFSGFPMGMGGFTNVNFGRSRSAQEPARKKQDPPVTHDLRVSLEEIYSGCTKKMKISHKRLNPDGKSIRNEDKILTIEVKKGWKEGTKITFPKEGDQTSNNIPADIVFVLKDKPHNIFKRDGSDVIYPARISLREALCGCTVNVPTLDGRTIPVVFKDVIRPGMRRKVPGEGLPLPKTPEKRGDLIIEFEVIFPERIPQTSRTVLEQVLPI

The experiment deals with HSP70‐1A (human (endogenous in PC3 and HuH7)) (UniProt P0DMV8). As to the kind of experiment: co-IP; whole-cell extracts (300 μg) of PC3 and HuH7 cells treated with GO-Y030 (2 μM) or dimethylsulfoxide for 24 h; precipitated with anti-HSP70/HSP72 mAb clone C92F3A-5 and Protein A/G PLUS-Agarose at 4 °C; immunoblot; isotype control mouse IgG1.

These are yes or no findings as the source states them, for the method shown. In cells and extracts the contact can be indirect. Some entries that bind do so weakly or less than the wild type.

With dnaJ‐B1 (from UniProt P25685 1-340), the binding entry is on record as “binds”.
